From patent publication US20120308570A1, “METHODS FOR TREATING DISEASES” (priority 2009, published 2012)
These are yes or no findings as the source states them, for the method shown. Binding seen in cells or lysates may run through a third protein. Some binding calls cover weakened binding; strength is not graded here.

Molecular target: T1, full-length iNOS protein (endogenous, from LPS/IFNγ-treated mouse bone marrow-derived macrophages) (mouse) (UniProt P29477)
T1 sequence: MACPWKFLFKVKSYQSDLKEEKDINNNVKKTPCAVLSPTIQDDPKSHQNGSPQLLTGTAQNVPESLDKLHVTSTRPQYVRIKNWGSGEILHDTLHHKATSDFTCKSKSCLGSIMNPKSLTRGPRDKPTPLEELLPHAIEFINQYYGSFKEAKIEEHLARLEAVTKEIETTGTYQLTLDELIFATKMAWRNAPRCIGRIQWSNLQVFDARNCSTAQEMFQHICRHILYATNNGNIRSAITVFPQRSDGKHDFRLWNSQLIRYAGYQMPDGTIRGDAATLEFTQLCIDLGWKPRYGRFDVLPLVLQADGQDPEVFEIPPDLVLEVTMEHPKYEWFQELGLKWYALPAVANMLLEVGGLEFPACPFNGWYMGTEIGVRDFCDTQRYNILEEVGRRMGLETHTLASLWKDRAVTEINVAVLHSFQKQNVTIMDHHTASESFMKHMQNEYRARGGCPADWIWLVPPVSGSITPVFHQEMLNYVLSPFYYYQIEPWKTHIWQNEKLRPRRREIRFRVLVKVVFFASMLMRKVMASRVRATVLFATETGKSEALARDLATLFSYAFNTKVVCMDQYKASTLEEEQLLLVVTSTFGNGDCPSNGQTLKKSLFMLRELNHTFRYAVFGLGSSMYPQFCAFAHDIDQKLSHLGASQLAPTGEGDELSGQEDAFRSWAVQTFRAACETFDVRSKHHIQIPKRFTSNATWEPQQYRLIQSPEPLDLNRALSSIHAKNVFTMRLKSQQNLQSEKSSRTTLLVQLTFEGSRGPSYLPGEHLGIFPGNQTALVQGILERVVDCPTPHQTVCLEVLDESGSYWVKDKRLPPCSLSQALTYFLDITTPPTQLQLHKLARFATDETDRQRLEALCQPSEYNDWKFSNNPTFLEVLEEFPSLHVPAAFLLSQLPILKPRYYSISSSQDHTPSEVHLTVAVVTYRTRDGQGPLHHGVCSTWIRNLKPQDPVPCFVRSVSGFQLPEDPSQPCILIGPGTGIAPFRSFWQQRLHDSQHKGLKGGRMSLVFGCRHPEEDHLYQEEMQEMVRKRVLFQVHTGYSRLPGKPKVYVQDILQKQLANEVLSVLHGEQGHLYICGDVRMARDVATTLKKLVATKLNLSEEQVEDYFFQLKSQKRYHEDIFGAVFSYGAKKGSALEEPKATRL
Experiment: co-immunoprecipitation: 293T lysate with the Flag-tagged protein mixed with iNOS-expressing BMDM lysate, anti-Flag IP, Western blot with anti-iNOS

B1: SSB-2ΔSB (protein, not shown: small tags and cut ends)
chain: STPTSQALYSDFSPPEGLEELLSAPPPDLVAQRHHGWNPKDCSENIDVKEGGLCFERRPVAQSTDGVRGKRGYSRGLHAWEISWPLEQRGTHAVVGVATALAPLQADHYAALLGSNSESWGWDIGRGKLYHQSKGLEAPQYPAGPQGEQLVVPERLLVVLDMEEGTLGYSIGGTYLGPAFRGLKGRTLYPSVSAVWGQCQVRIRYMGERRVEE
modifications: N- or C-terminal Flag tag not written (letters not given).
binding: binds
